Measurements as given in patent publication US20220073618A1.
Results are given in words; binding and its absence hold for the method and conditions named. Binding calls can cover weak binding; strength is not graded here.

Molecular target: monkey PD-L1 on cell surface (monkey)
Assay: flow cytometry on CHO cells overexpressing monkey PD-L1

| binding | Binder |
| --- | --- |
| binds | AH01946 (antibody, human IgG1, V domains shown) VH: QVQLQESGPGLVKPSQTLSLTCTVSGYSITSGYTWHWIRQHPGKGLEWIGYIHYSGSTKYNPSLKSRVTISRDTSKNQFSLKLSSMTAADTAVYYCARNSLFASWGQGTLVTVSS VL: DIVLTQSPDSLAVSLGERATINCRASESVDTYGDSFMHWFQQKPGQPPKLLIYRASNLESGVPDRFSGSGSGTDFTLTISSVQAEDVAVYYCQQSNEAPYTFGGGTKLEIK |
| binds | AH02029 (antibody, human IgG1, V domains shown) VH: QVQLQESGPGLVKPSQTLSLTCTVTGYSITSGYTWHWIRQHPGKGLEWIGYIHYSGSTKYNPSLKSRVSISRDTSKNQFSLKLSSVTAADTAVYYCARNSLFASWGQGTLVTVSS VL: DIVLTQSPDSLAVSLGERATINCRASESVDTYGDSFMHWYQQKPGQPPKLLIYRASNLESGVPDRFSGSGSGTDFTLTISSLQAEDVAVYYCQQSNEAPYTFGGGTKLEIK |
